Reference: PubChem BioAssay AID504467 (National Center for Advancing Translational Sciences (NCATS), 2011)
The campaign covered roughly 330,000 compounds. About 7,700 (2.3%) were called active. Inconclusive results, whose numbers are uncertain, are shown with a selection of clear calls. Calls follow the shape of the dose curve; as a rule, active = well fitted inhibition curve with a large enough effect; inconclusive = small, poorly fitted or top-dose-only effect, or effect the other way; inactive = flat fitted curve, though single readings scatter. A potency beside an inconclusive call is a rough fit, not a confirmed value.

Test: qHTS screen for small molecules that inhibit ELG1-dependent DNA repair in human embryonic kidney (HEK293T) cells expressing luciferase-tagged ELG1; also: nearly all actives have a fitted effect of over 55% in size
Conditions: HEK293T ELG1-luciferase reporter, luminescence, 16 h, DNA damage induced by 5-fluorouridine; activity change, negative = inhibition: at 46.1 µM (top of the series)
Outline: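 DMSO vehicle served as the neutral condition. Each well held 2,000 cells given 5-fluorouridine plus compound; after 16 hr at 37 °C/5% CO2, ONE-Glo was added and luciferase measured 30 min later.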
% is scaled to controls: 0 for no effect and ±100 for the full control effect; potency is read from the fitted curve at half-maximal effect.

Row | Compound | Potency | activity change, negative = inhibition
1 | CC(NC(=O)COc1ccc(-c2nnco2)cc1)c1ccc(Cl)cc1Cl (stereo unspecified) | inconclusive: 29.1 µM [inhibitor, single point] | –
2 | CCOC(=O)c1cnc(-n2nc(C)cc2C)nc1Oc1ccccc1F | – | inactive: -0.218%
3 | Cc1ccc(-c2csc(=S)n2CC(=O)OCC(=O)NCc2ccco2)cc1 | inconclusive: 5.8 µM [activator, single point] | –
4 | O=C(CSCc1ccc(Cl)cc1)Nc1ccc(S(=O)(=O)N2CCCCCC2)cc1 | – | inactive: -16.1%
5 | CCOC(=O)CSC1=C(C#N)C(c2ccc(C)s2)CC(=O)N1 (stereo unspecified) | inconclusive: 3.66 µM [inhibitor, single point] | –
6 | O=C(Nc1ccccc1)Nc1csc2ccccc12 | inconclusive: 18.3 µM [activator, partial curve] | –
7 | COC(=O)c1cccc(NC(=S)NCCC2=CCCCC2)c1 | inconclusive: 11.2 µM [activator, single point] | –
8 | Cc1ccc(Cl)cc1N(CC(=O)N1CCCCCC1)S(C)(=O)=O | inconclusive: 6.51 µM [inhibitor, single point] | –
9 | S=C1CCSc2ccc(Cl)cc2N1 | – | inactive: 1.66%
10 | Cc1ccccc1Cn1c(CN2CCN(c3ccc(F)cc3)CC2)nc2c1c(=O)n(C)c(=O)n2C | – | inactive: -5.95%
11 | O=C(Nc1ccccn1)c1cc(-c2cccc(Cl)c2)nc2ccccc12 | active: 18.3 µM | –
12 | COc1cc(C(CCN2CCCC2)c2c(OC)cc(OC)c3c(C)cc(=O)oc23)cc(OC)c1OC (stereo unspecified) | inconclusive: 9.2 µM [activator, partial curve, poor fit] | –
13 | COc1ccccc1CN1CC(C(=O)N2CCC(OC)CC2)CCC1=O (stereo unspecified) | inconclusive: 13 µM [activator, partial curve, poor fit] | –
14 | COC(=O)C1=C(C)N(C)C(C)=C(C(=O)OC)C1c1ccncc1 | inconclusive: 9.2 µM [activator, single point] | –
15 | O=[N+]([O-])c1ccccc1N/N=C/c1c[nH]c2ccccc12 | inconclusive: 7.94 µM [activator, partial curve] | –
16 | CSc1cccc(NS(=O)(=O)c2ccc(C(C)=O)cc2)c1 | active: 7.3 µM | –
17 | CCOC(=O)/C(C#N)=C1/C=Cc2ccccc2N1CC | – | inactive: 20.1%
18 | C=CCSc1nnc(-c2cccc3ccccc23)o1 | – | inactive: 3.22%
19 | CC(C)OCCCNC(=O)c1ccc2c(c1)ncn2C1CCCC1 | inconclusive: 29.1 µM [activator, single point] | –
20 | CCN(CC)C(=O)c1[nH]cnc1C(=O)Nc1ccc(C)cc1 | – | inactive: 14.4%
21 | CCOC(=O)Cc1csc(NC(=O)c2sc3nc4ccc(CC)cc4cc3c2N)n1 | inconclusive: 23.1 µM [activator, partial curve] | –

As entered above:
Under Potency, CC(NC(=O)COc1ccc(-c2nnco2)cc1)c1ccc(Cl)cc1Cl (stereo unspecified) is entered as inconclusive: 29.1 µM [inhibitor, single point]
Under activity change, negative = inhibition, CCOC(=O)c1cnc(-n2nc(C)cc2C)nc1Oc1ccccc1F is entered as inactive: -0.218%
